{"source": "the supplement of paper PMC8732350", "note": "Where a name gives a salt, the structure may show the parent alone. ± gives the standard deviation of the averaged measurements. This is one part of the list. Repeats in this data set agree poorly, so a single value says little."}
{"system": "A549", "test": "surface PD-L1 immunofluorescence intensity relative to IFN-gamma-only control (ratio); higher = more PD-L1 expression", "settings": "10 µM; exposure time 24 h; IFN-gamma 100 ng/mL"}
{"smiles": "C/C(=C\\C(=O)Nc1ccccc1C(=O)O)c1ccc2ccccc2c1", "surface PD-L1 immunofluorescence intensity": 0.943}
{"smiles": "Cc1cc(Cl)ccc1OCCCC(=O)NO", "note": "[Droxinostat]", "surface PD-L1 immunofluorescence intensity": 1.08}
{"smiles": "O=C(NCCN1CCOCC1)c1ccc(Cl)cc1", "note": "[Moclobemide]", "surface PD-L1 immunofluorescence intensity": 1.02}
{"smiles": "Cc1ccc(-n2sc(=O)n(Cc3ccc(F)cc3)c2=O)cc1", "surface PD-L1 immunofluorescence intensity": 0.999}
{"smiles": "COc1ccc2c(c1)c(CC(=O)N1CCOCC1)c(C)n2C(=O)c1ccc(Cl)cc1", "surface PD-L1 immunofluorescence intensity": 0.943}
{"smiles": "CC(C)(C)n1nc(-c2cccc3ccccc23)c2c(N)ncnc21", "note": "[1-Naphthyl PP1]", "surface PD-L1 immunofluorescence intensity": 1.1}
{"smiles": "CNCCCC12CCC(c3ccccc31)c1ccccc12", "note": "[Maprotiline hydrochloride]", "surface PD-L1 immunofluorescence intensity": 1.17}
{"smiles": "COc1ccc(CCN2CCN(CCCc3ccccc3)CC2)cc1OC", "surface PD-L1 immunofluorescence intensity": 0.942}
{"smiles": "Cc1coc2c1C(=O)C(=O)c1c-2ccc2c1CCCC2(C)C", "note": "[Tanshinone IIA]", "surface PD-L1 immunofluorescence intensity": 0.955}
{"smiles": "Cc1cn2cc(C(=O)N(C)CCO)cc(N[C@@H]3CCOc4cccc(C)c43)c2n1", "surface PD-L1 immunofluorescence intensity": 1.05}
{"smiles": "CC1(C)C[C@@H]1C(=O)N/C(=C\\CCCCSC[C@H](N)C(=O)O)C(=O)O", "note": "[Cilastatin sodium]", "surface PD-L1 immunofluorescence intensity": 0.987}
{"smiles": "CC1(C)C[C@@H]1C(=O)N/C(=C\\CCCCSC[C@H](N)C(=O)O)C(=O)O", "note": "[Cilastatin]", "surface PD-L1 immunofluorescence intensity": 1.1}
{"smiles": "CCCCCCC(=O)OC1CC(C)(C)NC(C)(C)C1", "note": "[TMPH hydrochloride]", "surface PD-L1 immunofluorescence intensity": 1.08}
{"smiles": "Oc1cc2c(cc1O)CN(C(=S)NCCc1ccc(Cl)cc1)CCC2", "note": "[Capsazepine]", "surface PD-L1 immunofluorescence intensity": 1}
{"smiles": "Cc1c(C)c2c(c(C)c1OC(=O)CCC(=O)O)CC[C@@](C)(CCC[C@H](C)CCC[C@H](C)CCCC(C)C)O2", "note": "[Tocopherol succinate]", "surface PD-L1 immunofluorescence intensity": 1.01}
{"smiles": "CC(=O)OCOC(c1cc([N+](=O)[O-])ccc1Oc1ccc(Br)cc1)P(=O)(OCOC(C)=O)OCOC(C)=O", "note": "(stereo unspecified)", "surface PD-L1 immunofluorescence intensity": 1.17}
{"smiles": "C[C@@H]1C[C@H]2[C@@H]3C[C@H](F)C4=CC(=O)C=C[C@]4(C)[C@@]3(Cl)[C@@H](O)C[C@]2(C)[C@H]1C(=O)COC(=O)C(C)(C)C", "note": "[Clocortolone pivalate]", "surface PD-L1 immunofluorescence intensity": 0.987}
{"smiles": "CCCCCCCC/C=C\\CCCCCCCC(=O)NCCO", "note": "[N-Oleoylethanolamide]", "surface PD-L1 immunofluorescence intensity": 1.01}
{"smiles": "C[C@@H](O)[C@H]1C(=O)N2C(C(=O)O)=C(S[C@@H]3CN[C@H](C(=O)N(C)C)C3)[C@H](C)[C@H]12", "note": "[Meropenem]", "surface PD-L1 immunofluorescence intensity": "1.0445 ± 0.00068"}
{"smiles": "CC(=O)NCC(=O)N[C@H](CCC(=O)O)C(=O)O", "note": "[N-Acetylglycyl-D-glutamic acid]", "surface PD-L1 immunofluorescence intensity": 0.937}
{"smiles": "CC(=O)O[C@H]1C[C@@H]2CC[C@@H]3[C@H](CC[C@@]4(C)[C@H]3C[C@H]([N+]3(C)CCCCC3)[C@@H]4OC(C)=O)[C@@]2(C)C[C@@H]1N1CCCCC1", "note": "[Vecuronium Bromide]", "surface PD-L1 immunofluorescence intensity": 1.07}
{"smiles": "CC(=O)O[C@H]1C[C@@H]2CC[C@@H]3[C@H](CC[C@@]4(C)[C@H]3C[C@H]([N+]3(C)CCCCC3)[C@@H]4OC(C)=O)[C@@]2(C)C[C@@H]1N1CCCCC1", "note": "[Vecuronium bromide]", "surface PD-L1 immunofluorescence intensity": 1.06}
{"smiles": "C[C@]12C=CC(=O)C=C1CC[C@H]1[C@@H]3C[C@@H](O)[C@](O)(C(=O)CO)[C@@]3(C)C[C@H](O)[C@@]12F", "note": "[Triamcinolone]", "surface PD-L1 immunofluorescence intensity": 0.812}
{"smiles": "C[C@]12C=CC(=O)C=C1CC[C@H]1[C@@H]3C[C@@H](O)[C@](O)(C(=O)CO)[C@@]3(C)C[C@H](O)[C@@]12F", "note": "[Triamcinolone (Aristocort)]", "surface PD-L1 immunofluorescence intensity": 0.882}
{"smiles": "CC1(C)O[C@@H]2C[C@H]3[C@@H]4CCC5=CC(=O)CC[C@]5(C)[C@@]4(F)[C@@H](O)C[C@]3(C)[C@]2(C(=O)CCl)O1", "note": "[Halcinonide]", "surface PD-L1 immunofluorescence intensity": 0.799}
{"smiles": "CCN(CC)C(=O)/C(C#N)=C/c1cc(O)c(O)c([N+](=O)[O-])c1", "note": "[Entacapone]", "surface PD-L1 immunofluorescence intensity": 0.954}
{"smiles": "C[C@@H]1O[C@@H](OC[C@H]2O[C@@H](Oc3c(-c4ccc(OCCO)c(OCCO)c4)oc4cc(OCCO)cc(O)c4c3=O)[C@H](O)[C@@H](O)[C@@H]2O)[C@H](O)[C@H](O)[C@H]1O", "note": "[Troxerutin]", "surface PD-L1 immunofluorescence intensity": 1.06}
{"smiles": "CCOC(=O)C1=C(C)NC(C)=C(C(=O)OCC)C1c1ccccc1/C=C/C(=O)OC(C)(C)C", "note": "[Lacidipine]", "surface PD-L1 immunofluorescence intensity": 0.902}
{"smiles": "O=C(O)C(Cc1c[nH]c2ccccc12)N1C(=O)c2ccccc2C1=O", "note": "(stereo unspecified)", "surface PD-L1 immunofluorescence intensity": 1.01}
{"smiles": "CCOc1cc(CC(=O)N[C@@H](CC(C)C)c2ccccc2N2CCCCC2)ccc1C(=O)O", "note": "[Repaglinide]", "surface PD-L1 immunofluorescence intensity": "0.996 ± 0.012"}
{"smiles": "CCCCN(CCCC)CCC(O)c1cc2c(Cl)cc(Cl)cc2c2cc(C(F)(F)F)ccc12", "note": "(stereo unspecified) [Halofantrine hydrochloride]", "surface PD-L1 immunofluorescence intensity": 1.09}
{"smiles": "C#C[C@]1(O)CC[C@H]2[C@@H]3CCc4cc(O)ccc4[C@H]3CC[C@@]21C", "note": "[Ethinylestradiol]", "surface PD-L1 immunofluorescence intensity": 1.12}
{"smiles": "C#C[C@]1(O)CC[C@H]2[C@@H]3CCc4cc(O)ccc4[C@H]3CC[C@@]21C", "note": "[Ethinyl Estradiol]", "surface PD-L1 immunofluorescence intensity": 1.2}
{"smiles": "C[C@H](NC[C@H](O)CP(=O)(O)CC1CCCCC1)c1ccc(Cl)c(Cl)c1", "surface PD-L1 immunofluorescence intensity": 0.995}
{"smiles": "Nc1nc2c(ncn2COCCO)c(=O)[nH]1", "note": "[Acyclovir]", "surface PD-L1 immunofluorescence intensity": 0.884}
{"smiles": "CCCCCN(CCCCC)C(=O)C(CCC(=O)O)NC(=O)c1ccc(Cl)c(Cl)c1", "note": "(stereo unspecified) [Lorglumide sodium salt]", "surface PD-L1 immunofluorescence intensity": 0.993}
